# According to PubChem BioAssay AID1963315 (National Center for Advancing Translational Sciences (NCATS), 2024):
# Protein sequences, listed by entry. Tags and fused reporters are not part of them.
# UniProt P00519, whole entry, looked up: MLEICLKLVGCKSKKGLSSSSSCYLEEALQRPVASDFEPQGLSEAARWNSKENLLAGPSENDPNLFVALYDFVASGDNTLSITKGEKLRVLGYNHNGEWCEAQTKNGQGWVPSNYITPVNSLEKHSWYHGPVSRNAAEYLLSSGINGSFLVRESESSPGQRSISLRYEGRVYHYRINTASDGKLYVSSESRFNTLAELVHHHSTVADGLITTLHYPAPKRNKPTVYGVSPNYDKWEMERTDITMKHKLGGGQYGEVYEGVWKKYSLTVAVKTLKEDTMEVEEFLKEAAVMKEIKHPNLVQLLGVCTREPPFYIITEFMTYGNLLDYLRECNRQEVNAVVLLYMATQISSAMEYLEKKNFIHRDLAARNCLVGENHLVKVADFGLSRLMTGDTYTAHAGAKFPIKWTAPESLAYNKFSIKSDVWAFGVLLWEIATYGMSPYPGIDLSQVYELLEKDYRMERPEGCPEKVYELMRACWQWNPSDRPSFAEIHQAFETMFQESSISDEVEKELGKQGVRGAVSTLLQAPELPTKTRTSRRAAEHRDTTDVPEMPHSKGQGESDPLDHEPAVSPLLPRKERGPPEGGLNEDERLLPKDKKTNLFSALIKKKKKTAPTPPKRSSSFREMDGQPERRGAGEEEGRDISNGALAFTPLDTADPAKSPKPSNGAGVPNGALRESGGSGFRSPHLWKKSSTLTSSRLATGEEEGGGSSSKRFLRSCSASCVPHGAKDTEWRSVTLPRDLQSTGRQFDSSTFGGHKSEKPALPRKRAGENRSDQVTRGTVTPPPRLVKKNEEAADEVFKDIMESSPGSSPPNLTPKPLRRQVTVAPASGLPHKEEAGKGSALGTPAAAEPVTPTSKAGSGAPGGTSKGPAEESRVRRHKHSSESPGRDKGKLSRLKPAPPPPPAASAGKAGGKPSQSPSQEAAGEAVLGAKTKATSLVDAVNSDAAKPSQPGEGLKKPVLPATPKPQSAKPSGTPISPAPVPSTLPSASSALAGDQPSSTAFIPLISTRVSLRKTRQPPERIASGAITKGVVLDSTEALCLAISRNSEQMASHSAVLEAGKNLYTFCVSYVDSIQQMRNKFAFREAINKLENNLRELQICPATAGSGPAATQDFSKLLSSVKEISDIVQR
# These results got no clear call from the source, so the numbers are uncertain. Calls follow the shape of the full dose curve. Where the call is inconclusive, the potency comes from a doubtful curve fit.
# Molecular target: Tyrosine-protein kinase ABL1 (Homo sapiens) (UniProt P00519)
# Assay: ABL1 kinase (ABL1-N-HiBiT) SDR gain of signal screen
# Conditions: Purified ABL1-N-HiBiT enzyme, Nano-Glo HiBiT luminescence, 30 min compound incubation
# Source text: National Center for Advancing Translational Sciences (NCATS),
# National Institute of Health (NIH), Maryland
# Discovery and optimization of novel protein-binding ligands underlies many of the methods and applications of biology, drug discovery, clinical diagnostics, and environmental toxicology. Assays for detecting the interaction of, for example, a molecule with a macromolecular target also referred to here as the target of interest (TOI) is dependent on a compatible output technology. Depending on the nature and knowledge surrounding the TOI, whether a receptor, enzyme, regulatory subunit or scaffold, or a sequence-defined nucleic acid folded into a complex tertiary structure, assay strategies can vary widely.
# Here we exploit ligand-biased changes in the structural dynamics of the target protein to control reporter alpha complementation allowing a non-competitive, non-functional, non-separation measure of ligand-target interaction. […]
# SEQUENCE No. (e.g., 1, 2, 3, etc.); […] (e.g., C. elegans, Compounds, Incubation, Read, etc.); VALUE and DESCRIPTION. […]
# 6. […] (SDR assay) Luminescence measured using CCD-based camera (ViewLux) with settings as follows: Exposure, 1 sec; Gain, High; Speed, Slow; Binning, 2X. […]
smiles,measurement,value
Cc1ccc(C(=O)Nc2ccc(Oc3cc4cnn(C)c4cc3-c3cn[nH]c3)c(F)c2)c(=O)n1-c1ccc(F)cc1,Potency,inconclusive: 361 nM [activator]
